Data published in patent publication US20240238366A1, “alpha-SYNUCLEIN AGGREGATION INHIBITOR, PHARMACEUTICAL COMPOSITION FOR alpha-SYNUCLEIN DISEASE, AND USE THEREOF” (O-FORCE CO., LTD., priority 2021, published 2024).
Part of at least one peptide drawing is inferred or uncertain, most often the ends. Ends that are not written are not given here.

How the values were obtained:
Syn61-84 = Syn61-84 (Homo sapiens, UniProt P37840); experiment: Inhibition of aggregate formation of Syn61-84, ThT fluorescence (Example B2); assay type: biochemical; conditions: peptide 1 μmol/L, 100 μmol/L; 0.1 mM Syn61-84; 37° C. 24 hours
Procedure: Specifically, reaction solutions with the following compositions were prepared and each dispensed into wells such that the amount of the reaction solution per well was 200 μL. In the following compositions, X mmol/L peptides (aggregation inhibiting peptide solutions: YS-11 and LYZA-3) were prepared using MilliQ water, and the concentration X mmol/L was set to 1 μmol/L, […], and 100 μmol/L in the reaction solutions. […] After the reaction solutions were incubated at 37° C. for 24 hours, 10 μL of 2 mmol/L ThT was added per well, and the fluorescence intensity was measured using a measurement device (product name: Cytation5, manufactured by BioTek) (n=3). The measurement wavelengths were set such that the excitation wavelength (ex) was 444 nm and the fluorescence wavelength (em) was 480 nm. As a control, a reaction solution to which water was added instead of the aggregation inhibiting peptides (YS-11 and LYZA-3) was also measured in the same way.

Syn61-84 aggregates = Syn61-84 aggregates (Homo sapiens, UniProt P37840); experiment: Dissociation of Syn61-84 aggregates, ThT fluorescence (Example B3); assay type: biochemical
Procedure: Then, reaction solutions with the following compositions were prepared and each dispensed into wells such that the amount of the reaction solution per well was 200 μL, and, after the reaction solutions were incubated at 37° C. for 24 hours, 10 μL of 2 mmol/L ThT was added per well, and the fluorescence intensity was measured using a measurement device (product name Cytation5, manufactured by BioTek) (n=3). The measurement wavelengths were set such that the excitation wavelength (ex) was 444 nm and the fluorescence wavelength (em) was 480 nm. In the following compositions, X mmol/L peptides (aggregation inhibiting peptides: YS-11 and LYZA-3) were prepared using MilliQ water, and the concentration X mmol/L was set to 0.1 μmol/L, 1 μmol/L, 10 μmol/L, and 100 μmol/L in the reaction solutions. As a control, a reaction solution to which water was added instead of the peptide YS-11 and the peptide LYZA-3 was also measured in the same way.

[1] = tested on: Parkinson's disease model mice; experiment: Y-maze test in Parkinson's disease model mice produced with Syn61-84 (Example B4); assay type: in vivo; conditions: Day 74; 4 μL of 1 mmol/L inhibiting peptide on Day 56 to Syn61-84 mice
Procedure: (§1) As a control, a saline solution (Saline) was used.
(§2) The aggregation inhibiting peptide was not administered to the Saline administration group (n=3).
(§3) The short-term memory was evaluated through a Y-maze test on Day 14, Day 56, and Day 74, and the motor function was evaluated through a Rota-Rod test on Day 21, Day 55, Day 63, and Day 70. […] The Rota-Rod test was conducted using a rotor-rod device for mice (product name: MK-670, manufactured by Muromachi Kikai Co., Ltd.), with the rotational speed of the rotor set at 10 or 20 rpm, and the time until a mouse on the rotating rotor fell was measured.

[2] = tested on: Parkinson's disease model mice; experiment: Rota-Rod test in Parkinson's disease model mice produced with Syn61-84 (Example B4); assay type: in vivo; conditions: RR-3 and RR-4, after inhibiting peptide on Day 56 to Syn61-84 mice
Procedure: as §1, §2, §3

[3] = tested on: mouse neuroblastoma (Neuro2a) cells; experiment: Cell viability by WST-8 method after addition of incubated reaction solutions (Example B6); assay type: cell-based; conditions: reaction solution with 80 uM Syn61-84 and 0.08-80 uM YS-11, incubated 37° C. 24 hours, cells 24 hours
Procedure: Then, reaction solutions with the following compositions were prepared using these solutions. The reaction solutions were incubated at 37° C. for 24 hours.
Meanwhile, 0.15 mL of medium per well was placed in the wells of a 96-well plate, and mouse neuroblastoma (Neuro2a) cells were seeded to be 2.66×10^4 cells per well. After incubation at 37° C. for 24 hours, 50 μL of each reaction solution after the incubation was added per well and further incubated at 37° C. for 24 hours. The cell viability (%) was then measured for each well by the WST-8 method.

Sequence: RETLVYLTHLD [YS-11]
- fluorescence intensity (ThT) compared with the control (Syn61-84) (Syn61-84): decreased in a concentration-dependent manner
- aggregation inhibition ability compared at the same concentration (dissociation of aggregates) (Syn61-84 aggregates; comparison between FIGS. 5(A) and 5(B)): greater aggregation inhibition ability than the peptide YS-11
- fluorescence intensity (ThT) compared with the control (Syn61-84), dissociation of aggregates (Syn61-84 aggregates; peptide 0.1, 1, 10, 100 μmol/L, 0.1 mM preformed Syn61-84 aggregates, 37° C. 24 hours): fluorescence intensity decreased
- concentration dependence of the fluorescence intensity, dissociation of aggregates (Syn61-84 aggregates; peptide 0.1 to 100 μmol/L, 0.1 mM preformed Syn61-84 aggregates): decreased in a concentration-dependent manner
- alternation rate (Y-maze) compared with Saline administration group [1]: increase in the alternation rate
- spent time (Rota-Rod) [2]: increase in the spent time
- cell viability (control taken as 100%) [3]: concentration-dependent increase in the viability
